The subject of this assay is L1210 leukemia ip in BDF1 mice, survival T/C. The assay is described as follows: NCI In Vivo Anticancer Drug Screen. Data for tumor model L1210 Leukemia (intraperitoneal) in B6D2F1 (BDF1) mice. The note with it: T/C endpoint: mean survival time, higher T/C = longer survival.
The mark [1] stands for this setting: dose: 50.0 mg/kg/injection, schedule: Q04DX003 (ip), vehicle: saline.
Setting [2] is: dose: 400.0 mg/kg/injection, schedule: Q01DX001 (ip), vehicle: saline.
Where [3] appears, read: dose: 400.0 mg/kg/injection, schedule: Q04DX003 (ip), vehicle: Klucel (hydroxypropylcellulose) (HPC).
[4] abbreviates: dose: 400.0 mg/kg/injection, schedule: Q04DX002 (ip), vehicle: saline.
Setting [5] is: dose: 200.0 mg/kg/injection, schedule: Q04DX003 (ip), vehicle: Klucel (hydroxypropylcellulose) (HPC).
Where [6] appears, read: dose: 200.0 mg/kg/injection, schedule: Q01DX001 (ip), vehicle: saline.
The mark [7] stands for this setting: dose: 200.0 mg/kg/injection, schedule: Q01DX009 (ip), vehicle: saline.
Setting [8] is: dose: 400.0 mg/kg/injection, schedule: Q01DX009 (ip), vehicle: saline.
[9] abbreviates: dose: 400.0 mg/kg/injection, schedule: Q01DX009 (ip), vehicle: carboxymethylcellulose (CMC).
Where [10] appears, read: dose: 200.0 mg/kg/injection, schedule: Q01DX009 (ip), vehicle: carboxymethylcellulose (CMC).

The structures appear in SMILES notation. The list does not hold the whole screen: it gathers tests that were run many times, whatever their T/C, doses with no T/C, and many T/C values between a quarter and a half above the control. Further doses and runs are listed elsewhere. T/C: endpoint of the treated group in % of that of the vehicle group. Some doses have a count of surviving animals in place of a T/C: the source files T/C as zero there, which appears to mark a toxic dose or a test without result, not a measured value. Some doses without a T/C left all or most animals alive at the check, yet need not have been tolerated: survival well below the control is almost never listed, so the zero probably covers shortened survival too. Survivors were counted at the toxicity check, usually on the fifth day, unless a day is given; later deaths do not show. Schedules are NCI's codes, taken here to give the interval after Q, in days (D) or hours (H), and the number of doses after X. Some molecules as drawn cover several salts, stereoisomers or complexes of the source; a dose is that of the sample tested. For survival time, the PubChem record calls one and a half times the control and up active, and a quarter to a half above the control has no call in these data; cut-offs in other NCI protocols can differ. Some entries were tested several times; their values stand side by side, smallest first. Some schedule codes hold Z or #, which are not explained here. Some T/C values are followed by the survivors on the day toxicity was checked, most often the fifth; where none is given, no animal had died by that day.

Take `CCCCCCCCCCNC(=O)C[n+]1cccc(C(=O)Nc2ccc(Cl)cc2)c1`: the survivor count is, setting by setting: (dose: 25.0 mg/kg/injection, schedule: Q01DX009 (ip), vehicle: acetone) 3 of 6; under setting [1], 2 of 6; (dose: 100.0 mg/kg/injection, schedule: Q04DX003 (ip), vehicle: acetone) 0 of 6; (dose: 200.0 mg/kg/injection, schedule: Q04DX003 (ip), vehicle: acetone) 0 of 6; (dose: 400.0 mg/kg/injection, schedule: Q04DX003 (ip), vehicle: acetone) 0 of 6.

Regarding `ClCc1nc2ccccc2s1`, the survivor count (dose: 400.0 mg/kg/injection, schedule: Q01DX009 (ip), vehicle: Klucel (hydroxypropylcellulose) (HPC)) is reported as 0 of 3.

As to `Cc1nnc2c([N+](=O)[O-])cccn12`, the survivor count under setting [2] is recorded as 0 of 6.

As for `CCCCCCCCCCCCCCCc1cc(=O)n(-c2ccc(NC(=O)/C=C/C(=O)O)cc2)n1C`, the survivor count under setting [3] was 3 of 6.

On to `CC1(C)N=C1c1ccccc1`, for which the survivor count under setting [4] is on record as 1 of 3.

For `CCCCNC(=O)c1ncccc1C(=O)O`, the survivor count (dose: 400.0 mg/kg/injection, schedule: Q04DX003 (ip), vehicle: carboxymethylcellulose (CMC)) is reported as 3 of 6.

For `Nc1ccc(S(=O)(=O)c2cc(O)c3ccccc3c2O)cc1`, the survivor count was 0 of 6 (dose: 50.0 mg/kg/injection, schedule: Q01DX009 (ip), vehicle: saline); 2 of 6 (dose: 100.0 mg/kg/injection, schedule: Q04DX003 (ip), vehicle: Klucel (hydroxypropylcellulose) (HPC)); 0 of 6 under setting [5]; 1 of 6 under setting [3].

In the case of `Nc1cc(=O)[nH][nH]1`, the T/C was 137 % of control [5 of 6 alive] (dose: 450.0 mg/kg/injection, schedule: Q01DX Z (ip), vehicle: saline) and 129 % of control (dose: 675.0 mg/kg/injection, schedule: Q01DX Z (ip), vehicle: carboxymethylcellulose (CMC)).

As to `COc1ccc(NC(=O)CC#N)cc1`, the survivor count (dose: 400.0 mg/kg/injection, schedule: Q01DX001 (ip), vehicle: Klucel (hydroxypropylcellulose) (HPC)) is listed as 0 of 6.

For the molecule `O=c1c(O)cccc2cc(O)c(O)c(O)c12`, the survivor count (dose: 100.0 mg/kg/injection, schedule: Q01DX009 (ip), vehicle: saline) is listed as 6 of 6.

Take `NC(=O)Cn1cnc2c(=S)nc[nH]c21`: the survivor count was 3 of 6 (dose: 50.0 mg/kg/injection, schedule: Q04DX003 (ip), vehicle: saline with Tween-80); 3 of 6 (dose: 100.0 mg/kg/injection, schedule: Q04DX003 (ip), vehicle: saline with Tween-80); 1 of 6 (dose: 200.0 mg/kg/injection, schedule: Q04DX003 (ip), vehicle: saline with Tween-80); 0 of 6 (dose: 400.0 mg/kg/injection, schedule: Q04DX003 (ip), vehicle: saline with Tween-80).

On to `CN1C=c2c3c(ccc2=C2C=CC4C=C5OCOC5=CC4=C21)OCO3` (stereo unspecified), for which the survivor count is 3 of 6 (dose: 40.0 mg/kg/injection, schedule: Q01DX001 (ip), vehicle: saline); 0 of 6 under setting [1]; 0 of 6 (dose: 60.0 mg/kg/injection, schedule: Q01DX009 (ip), vehicle: saline); 0 of 6 (dose: 80.0 mg/kg/injection, schedule: Q01DX001 (ip), vehicle: saline); 0 of 6 (dose: 100.0 mg/kg/injection, schedule: Q04DX003 (ip), vehicle: saline).

In the case of `CC(C)(C)OC1C2C=CC1C=C2` (stereo unspecified), the survivor count runs as follows: (dose: 50.0 mg/kg/injection, schedule: Q04DX003 (ip), vehicle: Klucel (hydroxypropylcellulose) (HPC)) 6 of 6; under setting [5], 6 of 6.

In the case of `CC(C)C1CCC2(CC1)CCN(CCCN(C)C)CC2`, the survivor count runs as follows: under setting [6], 2 of 4; under setting [2], 0 of 4.

In the case of `C[N+](C)(C)CCOC(=O)c1ccc(CBr)cc1`, the survivor count reads like this: under setting [7], 5 of 6; (dose: 200.0 mg/kg/injection, schedule: Q04DX002 (ip), vehicle: saline) 1 of 3; under setting [8], 0 of 6; under setting [4], 0 of 3.

`CN(C)C(=S)Nc1ccccc1`: under setting [7], the T/C is 134 % of control. Also, the survivor count runs as follows: (dose: 300.0 mg/kg/injection, schedule: Q01DX009 (ip), vehicle: Klucel (hydroxypropylcellulose) (HPC)) 3 of 6; under setting [8], 1 of 6.

Turning to `CCOC(=O)CNc1cccc(C(F)(F)F)c1`, the survivor count under setting [9] is 3 of 6. Besides, for the setting “dose: 400.0 mg/kg/injection, schedule: Q04DX002 (ip), vehicle: Klucel (hydroxypropylcellulose) (HPC)”, the T/C is 125 % of control.

Turning to `S=c1nc[nH]c2nc[nH]c12.[Ag]`, the survivor count reads like this: (dose: 6.0 mg/kg/injection, schedule: Q01DX009 (ip), vehicle: carboxymethylcellulose (CMC)) 3 of 6; (dose: 12.0 mg/kg/injection, schedule: Q01DX009 (ip), vehicle: carboxymethylcellulose (CMC)) 3 of 6; (dose: 25.0 mg/kg/injection, schedule: Q01DX009 (ip), vehicle: carboxymethylcellulose (CMC)) 3 of 6; under setting [10], 3 of 6. Besides, the T/C reads like this: (dose: 100.0 mg/kg/injection, schedule: Q01DX009 (ip), vehicle: carboxymethylcellulose (CMC)) 139 % of control; under setting [10], 128 and 137 % of control; under setting [7], 143 % of control; under setting [9], 140 % of control; under setting [8], 141 % of control; (dose: 600.0 mg/kg/injection, schedule: Q01DX009 (ip), vehicle: saline) 143 % of control.

Consider `CCOc1ccccc1/C=C1\C=Nc2ccccc21`, for which, under “dose: 400.0 mg/kg/injection, schedule: Q04DX002 (ip), vehicle: carboxymethylcellulose (CMC)”, the survivor count was 3 of 3.

In the case of `CCCC(=O)CCN(C)Cc1ccccc1`, the survivor count under setting [6] is 0 of 6 and the survivor count under setting [2] is 1 of 6.

Take `Cc1cc2c(cc1C)[n+]([O-])c1c(=O)[nH]c(=O)[nH]c1[n+]2[O-]`: the survivor count is 1 of 3 (dose: 100.0 mg/kg/injection, schedule: Q04DX002 (ip), vehicle: saline with Tween-80); 0 of 3 (dose: 200.0 mg/kg/injection, schedule: Q04DX002 (ip), vehicle: saline with Tween-80); 1 of 3 (dose: 400.0 mg/kg/injection, schedule: Q04DX002 (ip), vehicle: saline with Tween-80).

For the origin of these results see PubChem BioAssay AID248 (DTP/NCI, 2004).
